# Reference: the supplement of paper PMC10735217
# Counter-ions that a name gives are not always drawn. The list shows a part of the results. This data set is noisy: repeats of one test often differ as much as different tests do.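 In a drug-repurposing library screen, luminescence reads luciferase driven by eight TEAD-binding elements, stably integrated into human kidney-derived cells. Compounds scoring over five robust Z scores above the plate mean are called hits.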
# Test system: HEK293A TEAD-LUC reporter
# Test: TEAD-luciferase reporter activity (YAP activation), robust Z score vs plate; higher = stronger YAP/TEAD activation
# Settings: 24 h
Structure (SMILES),TEAD-luciferase reporter activity (compound concentration: 200 nM),TEAD-luciferase reporter activity (compound concentration: 2 uM),TEAD-luciferase reporter activity (compound concentration: 10 uM)
C[C@H]1OC(OC2[C@@H](O)C[C@H](O[C@H]3CC[C@]4(C)C5C[C@@H](O)[C@]6(C)[C@@H](C7=CC(=O)OC7)CC[C@]6(O)[C@@H]5CC[C@H]4C3)O[C@@H]2C)C[C@H](O)C1OC1C[C@H](O)C(O[C@@H]2O[C@H](CO)[C@@H](O)[C@H](O)[C@H]2O)[C@@H](C)O1 (some centres undefined),active: 7.46,inactive: -2.24,active: 30.9
O=C(CCCN1CCN(c2ccc(F)cc2)CC1)NC1c2ccccc2CSc2ccccc21 (centres undefined),inactive: -0.174,inactive: -1.1,active: 5.13
CN1CCCC(C(=O)N2c3ccccc3NC(=O)c3cccnc32)C1 (centres undefined),inactive: -2.03,inactive: -0.771,inactive: 0.429
CN1CC(=O)NC(Cc2c(C(=O)c3ccc4c(c3)OCO4)[nH]c3ccccc23)C1=O (centres undefined),inactive: -1.13,inactive: 0.268,inactive: -0.865
Cc1c(N(C)CS(=O)(=O)[O-])c(=O)n(-c2ccccc2)n1C [Metamizole],inactive: -0.164,inactive: 0.544,inactive: -1.73
C[n+]1c2n(c(=O)c3ccccc31)CCc1c-2[n-]c2ccccc12 [dehydroevodiamine HCl],inactive: -1.27,inactive: 0.299,inactive: 0.265
CNC1C(O)C(OC2C(N)CC(N)C(OC3OC(CN)C(O)C(O)C3O)C2O)OCC1(C)O (centres undefined),inactive: -0.501,inactive: -0.294,inactive: 3.07
CCc1nc2ccc(Cl)cn2c1C(=O)NCc1ccc(N2CCC(c3ccc(OC(F)(F)F)cc3)CC2)cc1,,inactive: 0.403,
CCc1nc2ccc(Cl)cn2c1C(=O)NCc1ccc(N2CCC(c3ccc(OC(F)(F)F)cc3)CC2)cc1 [Q203 from Novartis/NITD],inactive: -0.381,,inactive: 1.7
NCC(=O)CCC(=O)O [Aminolevulinic Acid],inactive: -1.86,,inactive: 0.529
NCC(=O)CCC(=O)O,,inactive: -1.53,
CCN(C(=O)Cc1ccc(S(C)(=O)=O)cc1)C1CCN(CC[C@@H](c2cc(F)cc(F)c2)C2CCN(S(C)(=O)=O)CC2)CC1,inactive: -0.451,inactive: 1.52,inactive: 2.62
O=C(O)CCS[C@@H](CC(=O)O)c1ccccc1CCCCCCCCc1ccccc1,inactive: -1.49,inactive: -1.19,inactive: -0.236
COc1cccc(C(=O)COc2ccc(CC3SC(=O)NC3=O)cc2)c1 (centres undefined),inactive: 0.835,inactive: -0.0416,inactive: -0.426
O=C(c1c[nH]c2ncccc12)N1CCC(Cc2ccccc2)CC1,inactive: 4.33,,inactive: 0.781
Cc1cc(N2CCOCC2)cc2[nH]c(-c3c(NC[C@@H](O)c4cccc(Cl)c4)cc[nH]c3=O)nc12,inactive: -1.1,inactive: -2.41,inactive: -1.48
CSC[C@H](NC(=O)[C@H](Cc1ccccc1)NC(=O)N1CCOCC1)C(=O)N[C@@H](CC1CCCCC1)[C@@H](O)C(=O)OC(C)C [Terlakiren],inactive: 1.51,inactive: -0.896,inactive: 0.982
COC(=O)[C@H](CCSC)NC(=O)c1ccc(CNCc2c[nH]cn2)cc1-c1ccccc1C,inactive: -0.844,inactive: 1.62,active: 6.19
CC[C@H](CC[C@@H](C)[C@H]1CC[C@H]2[C@@H]3CC=C4C[C@@H](O[C@@H]5O[C@H](CO)[C@@H](O)[C@H](O)[C@H]5O)CC[C@]4(C)[C@H]3CC[C@]12C)C(C)C [Beta-sitosterol glucoside],inactive: -0.938,inactive: -1.11,inactive: -1.57
CCCCCCCCCCCCCCCCCCNC(=O)OCC(COP(=O)(O)OCC[n+]1ccsc1)OC (centres undefined),inactive: -0.617,inactive: -1.81,inactive: -0.372
Cc1cccc(C)c1NCC(C)N(C)C (centres undefined),inactive: -1.91,inactive: 0.322,inactive: -1.38
CCNc1ncnc2c1nc(C(C)C)n2Cc1ccc(OC)c(OC2CCCC2)c1,inactive: 2.3,inactive: 1.68,inactive: 0.727
C=C[C@]1(C)C[C@@H](OC(=O)CO)[C@]2(C)C(C)CCC3(CCC(=O)C32)[C@@H](C)[C@@H]1O (some centres undefined),inactive: -0.541,inactive: -1.53,inactive: -1.64
O=C(NCc1ccc(Oc2ccccc2)cc1)c1nc(-c2cc(Br)c(O)c(Br)c2)no1,inactive: -1.13,inactive: 3.42,inactive: -0.0253
NC(=O)C(c1ccccc1)(c1ccccc1)[C@@H]1CCN(CCc2ccc3c(c2)CCO3)C1 [darifenacin hydrobromide],inactive: -0.712,inactive: -0.318,inactive: -1.35
O=C1c2cccnc2OC[C@@H]2CCCN12,inactive: -0.893,inactive: -0.132,inactive: 0.968
CS(=O)(=O)N[C@H](Cc1ccccc1)C(=O)N1CCC[C@H]1C(=O)NCC1CCN(C(=N)N)CC1,inactive: -0.0506,inactive: -0.494,inactive: 0.348

# Fetched one by one from the list above, 2 records:
Structure (SMILES),TEAD-luciferase reporter activity (compound concentration: 200 nM),TEAD-luciferase reporter activity (compound concentration: 2 uM),TEAD-luciferase reporter activity (compound concentration: 10 uM)
Cc1cccc(C)c1NCC(C)N(C)C (centres undefined),inactive: -1.91,inactive: 0.322,inactive: -1.38
O=C(NCc1ccc(Oc2ccccc2)cc1)c1nc(-c2cc(Br)c(O)c(Br)c2)no1,inactive: -1.13,inactive: 3.42,inactive: -0.0253
